Measured values from patent US4956389A, “Compounds having calcium blocking activity” (priority 1982, dated 1990).

Columns and labels:
[1] = test system: mitochondria of liver of rats; assay: Study on the Ca2+-efflux in mitochondria of liver of rats; assay type: biochemical, rat; settings: 250 μM
Description: The mitochondria of liver of rats prepared as in the preceding experiment were "charged" with Ca and subsequently, taken in a medium deprived of this ion. In the presence of an uncoupling agent or "Ruthenium Red", there is a flow of Ca^2+ ion from the mitochondria into the medium.
The results reported in Table 4 are expressed as the quantity of Ca transferred from the mitochondria per mg of protein per minute.

[2] = test system: synaptosomes of the brain of rats; assay: Inhibition of the Ca2+-uptake in synaptosomes of the brain of rats; assay type: biochemical, rat; settings: 250 μM; 45CaCl2 1 mM; control 80 ± 7
Method: The synaptosomes have been prepared from an homogenate of the brain of rats by centrifugation in the gradient of Filcoll at 23,500 rpm for a period of 30 minutes and diluted to 1.5 mg/cc in the medium constituted by:
The substance YS 035 and nifedipine and papaverine, by way of comparison, have been added to the medium at a final concentration of 250 μM. After 15 minutes of preincubation, ^45 CaCl2, final concentration 1 mM (0.2μCi/cc is added to the medium).
The first determination has been carried out two minutes after the addition. The concentrations which have been found have been set as values at 0 time. The other controls have been carried out after 5 minutes, 10 minutes and 15 minutes. After each period, the reaction has been stopped by centrifugation and the radioactivity has been determined in the supernatant as well as in the pellet. The latter had been denatured previously with PCA, neutralized and subsequently centrifuged.
The results illustrated in the following Table 1 are expressed as the quantity of calcium transferred per mg of protein after the maximum period of incubation of 15 minutes.

COC(=O)C1=C(C)NC(C)=C(C(=O)OC)C1c1ccccc1[N+](=O)[O-] [Nifedipine, reference compound]
uncoupling action (in words) [1]: an uncoupling action of nifedipine has been noted
Ca2+-efflux induced by Ruthenium red ([1]; control 0.7): 2.2 n g ions/min. mg/prot
Ca2+-efflux induced by uncoupling agent ([1]; control 8.3): 8.5 n g ions/min. mg/prot
Ca2+-efflux ([1]; no inducer, control 0.0): 3.8 n g ions/min. mg/prot
Ca2+-uptake [2]: 42 ± 5 n g ions/mg prot/15 min
